Experimental findings from article PMC5640845, “Screening of FDA-Approved Drugs for Inhibitors of Japanese Encephalitis Virus Infection” (Journal of Virology, 2017) are described below.

The test system of series [1] is JEV RVP. Briefly: microbe, parasite or virus in culture. Particulars: Japanese encephalitis virus, Vero, 24 h.
A short description of series [2]: Cytotoxicity (CC50) of compounds from the reconfirmation screen. Format: cell-based. Particulars: African green monkey, Vero cells; 50% cytotoxic concentration.
The subject of series [3] is JEV RVP. As to the kind of experiment: in vitro. Particulars: African green monkey, SI (selective index, CC50/IC50), Vero cells.

Turning to `Clc1ccc(CSC(Cn2ccnc2)c2ccc(Cl)cc2Cl)cc1` (stereo not drawn) [Sulconazole nitrate], the half-inhibitory concentration (IC50) (commonly the concentration that inhibits the measured activity by half) with JEV RVP [1] came to 7.6 µM. Further, in series [2], the midpoint of cytotoxicity, the CC50, lay at 18.7 µM. The selectivity ratio with JEV RVP [3] amounted to 2.5.
